# Measured values from paper PMC5035049, “Solution Structure of the Cuz1 AN1 Zinc Finger Domain: An Exposed LDFLP Motif Defines a Subfamily of AN1 Proteins” (PLoS ONE, 2016).
# Chains of the proteins cited; added tags and fusions are not shown. Residues count along the entry.
# UniProt P0CG63, residues 1-76: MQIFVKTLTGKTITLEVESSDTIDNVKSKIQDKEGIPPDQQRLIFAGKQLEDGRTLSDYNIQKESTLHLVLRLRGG
# Results are given in words; binding and its absence hold for the method and conditions named. Sequences can lack the tags named with a protein.
# T1: Cuz1 AN1 zinc finger domain, residues 11-59, with N-terminal 6x-Histidine tag (plasmid pJH190) (S. cerevisiae) (UniProt P53899)
# T1 sequence: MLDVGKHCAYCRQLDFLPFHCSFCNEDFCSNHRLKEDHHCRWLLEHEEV
# Legend:
# [1] = target: T1, Cuz1 AN1 zinc finger domain, residues 11-59, with N-terminal 6x-Histidine tag (plasmid pJH190) (S. cerevisiae); assay: NMR titration; unlabeled recombinant 6xHis-tagged monoubiquitin added to the Cuz1 AN1 ZnF; spectral shifts looked for; both purified
# [2] = target: T1, Cuz1 AN1 zinc finger domain, residues 11-59, with N-terminal 6x-Histidine tag (plasmid pJH190) (S. cerevisiae); assay: SEC; Superdex 75 16/60 column, purified Cuz1 AN1 ZnF protein, molecular weight size standards for reference; both purified
binding [1],binding [2],Molecule
no binding,,recombinant 6xHis-tagged monoubiquitin (from UniProt P0CG63 1-76)
,no binding,"MLDVGKHCAYCRQLDFLPFHCSFCNEDFCSNHRLKEDHHCRWLLEHEEV (domain or fragment, UniProt P53899 11-59) [Cuz1 AN1 zinc finger domain, residues 11-59, with N-terminal 6x-Histidine tag (plasmid pJH190)]"
